From ChEMBL document CHEMBL3988442, “University of Dundee, Small-Polar-MMV Screening Library” (2021).

Values are the deposited “Percent Effect”, in %. The controls that fix the scale are not given in the record; negative values are as filed. Compounds were drawn at random from those tested, without regard to their results.

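Whole-parasite assay of Trypanosoma brucei over 72 hours; the read-out is not stated. Concentration: 30 µM. The record gives no direction; compounds that gave an IC50 in retests scored well above the rest, so higher reads as stronger inhibition. Values scatter widely below zero; nearly all retest evidence comes from the higher of the two concentrations used. Size under these conditions: about 64,000 compounds, about 940 of them at 50% or above in at least one test.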

SMILES | percent effect
Cc1nn(CCNC(C)Cn2ccnc2)c(C)c1Cl (stereo unspecified) | -27.55%
CCN1CCN(c2ccc(C(=O)NC(C)CCOC)cc2)CC1 (stereo unspecified) | -37.61%
COc1ccc(CN(C)Cc2nc3c(cnn3C)c(=O)[nH]2)cc1OC | -7.171%
CN(C)c1ccc(CNC(=O)Nc2ccc(S(C)(=O)=O)nc2)cc1 | 16.08%
CCS(=O)(=O)N1CCC2(CCCC(=O)N2C)CC1 | -25.89%
CN(Cc1cc(Br)cn1C)C(=O)Cc1cccnc1 | 102.7%
Cc1cc(CN2CCC3(CC2)CC(C(=O)O)N(C(=O)C2CC2)C3)oc1C (stereo unspecified) | 3.086%
COc1ccc(CCC2CCCN(C(=O)CCc3cc(O)no3)C2)cc1 (stereo unspecified) | -46.94%
CC(C)c1nc(N2CCN3CCCC3C2)c2cnn(C)c2n1 (stereo unspecified) | 42.46%
CC(C)c1csc(C2CCCN(C(=O)c3ccc[nH]3)C2)n1 (stereo unspecified) | -49.06%
[H][C@]12CN(C(=O)c3cccnc3)CCN1C(=O)N(Cc1ccc(F)cc1)C2 | -46.18%
Cc1cc(NCCN)nc(-c2ccccc2O)n1 | -60.64%
C=Cc1ccc(C(=O)N2CCCC(Nc3ccc(F)cc3)C2)cc1 (stereo unspecified) | -5.363%
[H][C@@]12CCCCN(C)[C@]1([H])[C@@H](c1ccccc1)CCN2C(=O)c1cccnc1 | -28.46%
c1ccn(Cc2nnc3n2CCCN(c2cnccn2)C3)c1 | -40.15%
CCCNC(=O)NCc1nc(C)c(C)o1 | -41.34%
CN1CC[C@]2(CN(Cc3cccs3)C[C@H]2c2ccccc2)C1=O | -4.599%
CCOCc1ccc(NC(=O)N2CCOC3(CCC3)C2)cc1 | -17.94%
COc1ccccc1C1CC(=O)Nc2c1c(=O)[nH]n2C(C)C (stereo unspecified) | 0.06959%
CCSCC(C)NCc1nncn1C1CCCCC1 (stereo unspecified) | -14.56%
C=Cn1ncc(CN2CCc3nc(-c4ccncc4)nc(O)c3C2)c1C | 12.36%
Cc1nnc(NCc2ccc(Cl)cc2)o1 | -32.4%
Cc1ccc(C(NC(=O)CCCN2CCCCC2)C(=O)O)cc1 (stereo unspecified) | -72.05%
CCOCc1nc(-c2ccc(F)cc2Cl)n(C2CCN(C)CC2)n1 | -13.44%
Cc1noc(C)c1CNC(=O)N1Cc2ccccc2N(C)CC1C (stereo unspecified) | -70.05%
O=C(O)C(F)(F)F.c1cnc(N2CCOC3(CCN(CC4CCOC4)CC3)C2)nc1 (stereo unspecified) | -7.06%
Cc1cc(C)c(CNC(=O)NCCNc2ncccn2)c(=O)[nH]1 | -55.62%
COCCn1c2c(ccc1=O)CCN(C(=O)Cc1ccsc1)CC2 | 15.33%
Cc1ncc(CNC(=O)NCC(C)Oc2ccccc2F)s1 (stereo unspecified) | -136.3%
CC(NC(=O)N1CCN(c2cccs2)CC1)c1ccncc1 (stereo unspecified) | -25.41%
CN(C)CC(=O)N1CCCC2(CCC(=O)N(CCc3c[nH]cn3)C2)C1 (stereo unspecified) | 2.494%
Cc1cccnc1NCCNC(=O)c1cnc(-c2ccccn2)nc1O | 99.84%
O=S1(=O)CCC(S(=O)(=O)c2cccc(S(=O)(=O)N3CCCCCC3)c2)C1 (stereo unspecified) | -16.87%
Fc1cnc(N2CCN(Cc3ccc(-c4cc[nH]n4)o3)CC2)nc1 | -14.03%
Cc1csc(C2(NC(=O)NCCN3CCOCC3)CCC2)n1 | 13.6%
O=C(O)C(F)(F)F.[H][C@@]12CCN(Cc3ccco3)C[C@]1([H])[C@@H](CNC(=O)c1ccnnc1)OC2 | -30.87%
CCC1COCCN1C(=O)CNC(=O)c1ccoc1C (stereo unspecified) | -7.492%
CSc1nccn1-c1cccc(C(=O)NCCC(=O)NC(C)C)c1 | 1.787%
Cc1ccc(NC(=O)N2CCCC(N(C)C)C2)c(Br)c1 (stereo unspecified) | 2.574%
Cn1cc(S(=O)(=O)NCC2CCN(C(=O)c3ccoc3)CC2)cn1 | -12.17%
CC(C)N(C)CC(=O)NCC(Cc1ccc(F)cc1)C(N)=O (stereo unspecified) | -8.582%
OCC(O)CN(CCN1CCOCC1)Cc1ccco1 (stereo unspecified) | -1.939%
[H][C@@]12CS(=O)(=O)C[C@]1([H])N(CCCOc1ccccc1)CCN2CC=C(C)C | 6.066%
O=C(O)C(F)(F)F.[H][C@@]12CCN(CCc3ccccc3)C[C@]1([H])O[C@@H](C(=O)NCCOC)C2 | -26.37%
COc1cccc(CCCN2CCC(N(C)S(C)(=O)=O)CC2)c1 | -29.36%
CCc1cc(C(F)(F)F)c2c(C3CCCN(C(=O)COC)C3)noc2n1 (stereo unspecified) | 11.28%
CC(=O)N1CCCC2(C1)CN(C(=O)C1CCCCC1)CCO2 (stereo unspecified) | -18.62%
CNC(=O)c1ccc(C2CN(Cc3ccc(F)cc3)CCO2)nc1 (stereo unspecified) | -6.612%
CN(C)c1ccc(-c2cccc(-c3ccn(CCCO)n3)c2)nn1 | -12.42%
CN1CSC[C@H]1C(=O)N1CCC(CCc2ccccc2)CC1 | -28.62%
Cn1c(C(F)(F)F)nn(CCNC(=O)c2cnc3ccccc3n2)c1=O | -41.71%
CCn1nc(C)c(C(C)Nc2cc(C3CCNCC3)nc(C)n2)c1C (stereo unspecified) | -39.03%
Cc1c(NC(=O)N(C)CCCc2cnn(C)c2)cnn1C | -24.28%
Cc1cnccc1NCCNC1CCSCC1 | -4.28%

Once more, the final 5:

Result for CN1CSC[C@H]1C(=O)N1CCC(CCc2ccccc2)CC1 was -28.62%.
Result for Cn1c(C(F)(F)F)nn(CCNC(=O)c2cnc3ccccc3n2)c1=O was -41.71%.
Result for CCn1nc(C)c(C(C)Nc2cc(C3CCNCC3)nc(C)n2)c1C (stereo unspecified) was -39.03%.
Result for Cc1c(NC(=O)N(C)CCCc2cnn(C)c2)cnn1C was -24.28%.
Result for Cc1cnccc1NCCNC1CCSCC1 was -4.28%.